Experimental data taken from the supplement of paper PMC10849652.
The other results are listed elsewhere or left out.

The chains behind the UniProt entries cited, without tags or fusion partners. Where a name states a change or a piece, a line headed by the entry shows the natural chain unless it says otherwise.
UniProt P08174: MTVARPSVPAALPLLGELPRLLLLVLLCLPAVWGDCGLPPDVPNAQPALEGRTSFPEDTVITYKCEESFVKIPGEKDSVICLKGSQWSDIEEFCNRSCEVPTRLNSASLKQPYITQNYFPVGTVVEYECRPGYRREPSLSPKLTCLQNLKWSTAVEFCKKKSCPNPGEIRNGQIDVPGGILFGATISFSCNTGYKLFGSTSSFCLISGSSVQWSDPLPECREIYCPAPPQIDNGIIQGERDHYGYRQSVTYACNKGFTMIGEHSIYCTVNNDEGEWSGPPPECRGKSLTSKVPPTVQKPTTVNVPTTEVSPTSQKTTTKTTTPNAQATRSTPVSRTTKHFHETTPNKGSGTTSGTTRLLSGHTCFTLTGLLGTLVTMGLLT
UniProt Q12834, whole entry, looked up: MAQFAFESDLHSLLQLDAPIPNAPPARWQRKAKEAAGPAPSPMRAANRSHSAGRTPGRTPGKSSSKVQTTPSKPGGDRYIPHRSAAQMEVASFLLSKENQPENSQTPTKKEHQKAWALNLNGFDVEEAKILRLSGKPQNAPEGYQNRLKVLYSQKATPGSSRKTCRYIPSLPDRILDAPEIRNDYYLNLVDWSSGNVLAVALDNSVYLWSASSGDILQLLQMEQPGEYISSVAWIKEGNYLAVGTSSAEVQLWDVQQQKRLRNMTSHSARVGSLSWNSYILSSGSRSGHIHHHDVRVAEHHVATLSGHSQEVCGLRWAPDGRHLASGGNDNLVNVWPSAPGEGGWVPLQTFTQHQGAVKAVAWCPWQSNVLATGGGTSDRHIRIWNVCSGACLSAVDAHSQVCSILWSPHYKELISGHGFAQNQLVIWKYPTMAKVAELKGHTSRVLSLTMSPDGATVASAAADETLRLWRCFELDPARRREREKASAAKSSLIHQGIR
UniProt Q9UJX2, whole entry, looked up: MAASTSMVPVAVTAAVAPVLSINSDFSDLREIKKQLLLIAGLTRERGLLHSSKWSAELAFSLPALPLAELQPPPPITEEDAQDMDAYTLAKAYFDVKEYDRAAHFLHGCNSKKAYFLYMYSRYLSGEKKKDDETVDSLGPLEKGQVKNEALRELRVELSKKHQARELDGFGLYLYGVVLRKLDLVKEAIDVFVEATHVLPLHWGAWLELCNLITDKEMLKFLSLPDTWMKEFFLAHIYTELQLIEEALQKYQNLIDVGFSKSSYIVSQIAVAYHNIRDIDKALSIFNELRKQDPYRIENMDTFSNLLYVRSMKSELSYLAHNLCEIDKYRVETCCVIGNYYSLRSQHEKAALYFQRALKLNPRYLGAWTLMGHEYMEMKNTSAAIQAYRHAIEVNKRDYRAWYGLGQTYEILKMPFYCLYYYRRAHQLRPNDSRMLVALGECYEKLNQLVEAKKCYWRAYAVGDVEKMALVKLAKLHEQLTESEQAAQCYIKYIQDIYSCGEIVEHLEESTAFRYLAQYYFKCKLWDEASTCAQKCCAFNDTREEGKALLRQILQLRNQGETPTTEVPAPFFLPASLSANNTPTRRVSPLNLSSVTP
UniProt P49589: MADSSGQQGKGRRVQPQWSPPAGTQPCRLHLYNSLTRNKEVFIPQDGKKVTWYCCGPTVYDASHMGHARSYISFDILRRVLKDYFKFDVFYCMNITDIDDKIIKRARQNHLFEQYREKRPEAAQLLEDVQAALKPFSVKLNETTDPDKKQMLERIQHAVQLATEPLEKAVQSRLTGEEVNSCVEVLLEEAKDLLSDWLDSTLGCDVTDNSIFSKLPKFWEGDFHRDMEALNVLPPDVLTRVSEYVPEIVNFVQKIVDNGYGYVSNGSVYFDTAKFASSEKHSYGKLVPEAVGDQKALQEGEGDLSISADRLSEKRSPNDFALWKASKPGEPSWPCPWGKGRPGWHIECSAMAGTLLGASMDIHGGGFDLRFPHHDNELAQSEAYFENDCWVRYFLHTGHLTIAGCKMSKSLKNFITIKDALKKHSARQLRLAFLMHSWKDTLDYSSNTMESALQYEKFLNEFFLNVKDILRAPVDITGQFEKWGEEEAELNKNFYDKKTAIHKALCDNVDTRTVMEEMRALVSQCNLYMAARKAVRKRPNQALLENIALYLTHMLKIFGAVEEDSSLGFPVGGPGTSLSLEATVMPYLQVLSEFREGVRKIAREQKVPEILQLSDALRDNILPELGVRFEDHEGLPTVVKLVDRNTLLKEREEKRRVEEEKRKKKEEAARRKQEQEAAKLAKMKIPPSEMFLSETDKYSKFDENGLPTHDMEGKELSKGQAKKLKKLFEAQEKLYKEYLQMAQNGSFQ
UniProt A6NKD9: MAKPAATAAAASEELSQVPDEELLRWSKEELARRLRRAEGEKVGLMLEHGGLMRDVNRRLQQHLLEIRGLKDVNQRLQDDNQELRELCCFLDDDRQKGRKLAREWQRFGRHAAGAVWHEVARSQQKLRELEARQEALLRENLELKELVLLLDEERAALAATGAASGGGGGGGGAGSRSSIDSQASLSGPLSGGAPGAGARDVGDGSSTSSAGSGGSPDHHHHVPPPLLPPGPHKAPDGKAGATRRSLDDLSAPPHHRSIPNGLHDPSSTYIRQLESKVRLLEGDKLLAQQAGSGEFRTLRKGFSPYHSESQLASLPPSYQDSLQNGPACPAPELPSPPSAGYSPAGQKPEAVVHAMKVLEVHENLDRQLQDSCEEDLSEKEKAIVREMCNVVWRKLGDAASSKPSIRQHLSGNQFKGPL
UniProt Q8IVM0: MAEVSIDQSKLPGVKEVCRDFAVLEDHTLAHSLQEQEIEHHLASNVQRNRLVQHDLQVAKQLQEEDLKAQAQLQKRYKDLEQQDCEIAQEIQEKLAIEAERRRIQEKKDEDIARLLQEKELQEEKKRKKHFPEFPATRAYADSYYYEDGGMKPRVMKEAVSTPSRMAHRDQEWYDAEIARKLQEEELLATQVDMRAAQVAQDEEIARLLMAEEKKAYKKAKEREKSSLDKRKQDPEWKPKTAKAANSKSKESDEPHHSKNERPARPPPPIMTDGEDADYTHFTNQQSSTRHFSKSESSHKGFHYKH
UniProt O95067, whole entry, looked up: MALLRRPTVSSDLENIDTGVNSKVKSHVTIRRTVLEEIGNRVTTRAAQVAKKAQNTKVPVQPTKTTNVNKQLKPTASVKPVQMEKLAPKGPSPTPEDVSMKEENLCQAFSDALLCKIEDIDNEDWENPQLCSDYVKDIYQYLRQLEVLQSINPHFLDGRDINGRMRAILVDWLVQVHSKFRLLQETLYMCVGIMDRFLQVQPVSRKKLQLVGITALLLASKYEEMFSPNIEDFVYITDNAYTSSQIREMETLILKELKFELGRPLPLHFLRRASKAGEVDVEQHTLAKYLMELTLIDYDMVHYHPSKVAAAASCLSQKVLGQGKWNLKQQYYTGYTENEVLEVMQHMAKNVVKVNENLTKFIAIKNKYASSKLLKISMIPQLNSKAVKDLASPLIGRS
UniProt A6NHX0: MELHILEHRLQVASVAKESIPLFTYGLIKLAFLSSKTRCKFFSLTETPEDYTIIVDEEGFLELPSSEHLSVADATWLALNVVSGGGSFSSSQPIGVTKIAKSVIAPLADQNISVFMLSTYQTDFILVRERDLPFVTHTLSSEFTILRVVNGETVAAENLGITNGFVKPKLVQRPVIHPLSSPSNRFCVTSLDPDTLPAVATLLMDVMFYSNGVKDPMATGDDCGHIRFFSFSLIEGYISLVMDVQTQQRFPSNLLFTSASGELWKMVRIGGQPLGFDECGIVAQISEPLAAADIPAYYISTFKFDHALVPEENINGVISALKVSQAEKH
UniProt P42575: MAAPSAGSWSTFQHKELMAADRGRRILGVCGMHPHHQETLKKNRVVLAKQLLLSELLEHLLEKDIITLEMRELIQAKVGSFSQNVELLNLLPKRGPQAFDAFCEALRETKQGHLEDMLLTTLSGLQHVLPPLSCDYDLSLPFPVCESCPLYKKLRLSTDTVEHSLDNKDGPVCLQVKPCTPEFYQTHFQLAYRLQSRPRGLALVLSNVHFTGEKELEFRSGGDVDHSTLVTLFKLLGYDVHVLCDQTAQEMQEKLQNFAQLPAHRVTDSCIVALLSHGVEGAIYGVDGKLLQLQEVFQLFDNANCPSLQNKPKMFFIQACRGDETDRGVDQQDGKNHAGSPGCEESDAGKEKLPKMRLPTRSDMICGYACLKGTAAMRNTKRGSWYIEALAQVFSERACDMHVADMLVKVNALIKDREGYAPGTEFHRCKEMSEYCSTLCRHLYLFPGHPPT
UniProt Q4VC31: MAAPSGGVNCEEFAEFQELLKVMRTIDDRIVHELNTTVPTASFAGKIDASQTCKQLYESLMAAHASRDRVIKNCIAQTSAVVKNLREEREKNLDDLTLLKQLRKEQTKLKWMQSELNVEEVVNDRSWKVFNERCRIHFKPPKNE
UniProt P48960: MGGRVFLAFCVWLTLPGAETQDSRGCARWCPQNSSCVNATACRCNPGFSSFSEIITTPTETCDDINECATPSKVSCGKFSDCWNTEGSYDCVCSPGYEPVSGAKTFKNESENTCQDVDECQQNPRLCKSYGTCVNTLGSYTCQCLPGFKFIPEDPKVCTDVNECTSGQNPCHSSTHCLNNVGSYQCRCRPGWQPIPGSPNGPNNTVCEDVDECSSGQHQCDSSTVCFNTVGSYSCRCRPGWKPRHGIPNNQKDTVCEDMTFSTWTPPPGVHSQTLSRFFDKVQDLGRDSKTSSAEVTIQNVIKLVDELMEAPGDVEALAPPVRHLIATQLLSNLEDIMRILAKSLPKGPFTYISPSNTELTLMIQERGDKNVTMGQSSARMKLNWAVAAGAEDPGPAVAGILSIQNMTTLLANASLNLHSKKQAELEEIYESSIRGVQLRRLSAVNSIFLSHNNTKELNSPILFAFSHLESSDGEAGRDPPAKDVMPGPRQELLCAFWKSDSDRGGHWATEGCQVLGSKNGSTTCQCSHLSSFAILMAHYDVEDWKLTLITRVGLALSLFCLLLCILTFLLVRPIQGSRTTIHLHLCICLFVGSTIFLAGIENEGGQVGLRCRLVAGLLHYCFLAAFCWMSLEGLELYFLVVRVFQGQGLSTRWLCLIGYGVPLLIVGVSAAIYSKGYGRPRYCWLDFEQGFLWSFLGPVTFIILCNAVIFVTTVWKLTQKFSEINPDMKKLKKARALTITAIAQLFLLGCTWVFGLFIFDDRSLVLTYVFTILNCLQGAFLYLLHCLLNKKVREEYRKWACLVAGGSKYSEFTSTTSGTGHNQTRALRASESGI
UniProt P08962, whole entry, looked up: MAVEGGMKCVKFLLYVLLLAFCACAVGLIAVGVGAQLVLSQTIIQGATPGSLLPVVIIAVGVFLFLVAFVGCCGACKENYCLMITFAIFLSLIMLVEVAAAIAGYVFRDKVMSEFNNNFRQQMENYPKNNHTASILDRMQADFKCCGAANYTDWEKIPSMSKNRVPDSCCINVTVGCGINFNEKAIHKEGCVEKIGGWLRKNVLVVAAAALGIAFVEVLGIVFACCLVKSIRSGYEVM
UniProt Q6PII3: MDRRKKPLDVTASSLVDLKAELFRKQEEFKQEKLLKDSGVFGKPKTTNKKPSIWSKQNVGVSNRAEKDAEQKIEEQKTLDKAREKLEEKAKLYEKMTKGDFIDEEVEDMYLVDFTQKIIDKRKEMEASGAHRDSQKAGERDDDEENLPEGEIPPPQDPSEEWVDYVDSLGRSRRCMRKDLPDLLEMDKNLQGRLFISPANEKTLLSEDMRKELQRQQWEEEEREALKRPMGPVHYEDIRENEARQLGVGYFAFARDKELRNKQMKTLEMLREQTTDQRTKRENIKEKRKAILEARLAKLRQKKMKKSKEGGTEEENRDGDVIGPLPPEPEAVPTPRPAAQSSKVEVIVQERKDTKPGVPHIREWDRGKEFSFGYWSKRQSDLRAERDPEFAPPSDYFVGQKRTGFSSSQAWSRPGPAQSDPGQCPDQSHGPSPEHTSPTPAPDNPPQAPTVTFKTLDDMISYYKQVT
UniProt Q6P4E1: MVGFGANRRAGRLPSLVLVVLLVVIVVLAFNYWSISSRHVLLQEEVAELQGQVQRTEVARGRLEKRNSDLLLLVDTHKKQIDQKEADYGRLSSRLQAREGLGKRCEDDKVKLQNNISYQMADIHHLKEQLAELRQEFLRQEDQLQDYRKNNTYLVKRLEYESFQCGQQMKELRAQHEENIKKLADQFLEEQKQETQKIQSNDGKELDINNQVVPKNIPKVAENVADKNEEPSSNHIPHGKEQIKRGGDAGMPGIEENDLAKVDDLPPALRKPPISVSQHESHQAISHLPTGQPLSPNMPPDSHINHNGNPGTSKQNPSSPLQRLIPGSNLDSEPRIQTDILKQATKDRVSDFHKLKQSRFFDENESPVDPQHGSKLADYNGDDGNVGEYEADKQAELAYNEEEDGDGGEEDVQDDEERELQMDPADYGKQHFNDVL
UniProt Q8N4T8: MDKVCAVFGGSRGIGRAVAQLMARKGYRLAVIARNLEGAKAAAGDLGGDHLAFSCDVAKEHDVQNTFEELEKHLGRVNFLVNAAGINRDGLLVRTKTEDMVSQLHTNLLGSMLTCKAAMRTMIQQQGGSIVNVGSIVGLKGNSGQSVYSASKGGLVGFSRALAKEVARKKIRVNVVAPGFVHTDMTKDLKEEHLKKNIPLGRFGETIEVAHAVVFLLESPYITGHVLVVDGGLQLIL

Experiments:
Assay in all cases: log2 fold change, soluble protein after heating vs DMSO (PISA); higher = thermal stabilisation; K562 cells, 10 uM, 30 min; active = over 0.2 and 3.5 SD of the protein, either way, in both replicates (recomputed)
[1] = compound: C1=CC=C(C=C1)[C@H](COC2=CC3=C(C=C2)NC(=O)N3)NC(=O)C4=CC=CN(C4=O)CC5=CC(=C(C=C5)F)F
Method in brief: (§1)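 Soluble protein was defined as the supernatant after 21,000xg for 90 min. It came from K562 cells at 2×10^6 cells/mL given 10 μM compound for 30 min, heated in aliquots for 3 min across 48°C-58°C, pooled, and extracted in PBS with 0.5% NP-40 at 4°C, and was quantified by TMTpro 16plex LC-MS/MS with equalised channel sums. Thermal stability against control samples, from duplicates, is reported as log2 fold change.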

[2] = compound: CC1=C(SC2=C1C(=N[C@H](C3=NN=C(N32)C)CC(=O)N)C4=CC=C(C=C4)Cl)C
Method in brief: as §1

[3] = compound: CC1=C2C(=CC=C1)N=C(N(C2=O)C3=CC=CC=C3C)CN4C=NC5=C(N=CN=C54)N
Method in brief: as §1

[4] = compound: Cc1sc2c(c1C)C(c1ccc(Cl)cc1)=N[C@@H](CC(=O)OC(C)(C)C)c1nnc(C)n1-2
Method in brief: as §1

[5] = compound: c1ccc([C@@H]2C[C@H]2NC2CCNCC2)cc1
Method in brief: as §1

Target	log2 fold change [1]	log2 fold change [2]	log2 fold change [3]	log2 fold change [4]	log2 fold change [5]
CD55 isoform 7 (UniProt P08174)	inactive: 0.026	inactive: -0.058	inactive: -0.009	inactive: -0.066	inactive: -0.049
CDC20 (UniProt Q12834)	inactive: -0.01	inactive: -0.084	inactive: 0.153	inactive: 0.075	inactive: 0.071
CAST isoform 6 (UniProt P20810)	inactive: 0.023	inactive: 0.011	inactive: 0.073	inactive: 0.026	inactive: 0.065
CDC23 (UniProt Q9UJX2)	inactive: 0.417	inactive: -0.027	inactive: 0.016	inactive: 0.014	inactive: -0.023
CARS isoform 3 (UniProt P49589)	inactive: -0.014	inactive: 0.015	inactive: 0.011	inactive: 0.004	inactive: 0.001
CCDC28A (UniProt Q8IWP9)	inactive: 0	inactive: 0.163	inactive: -0.053	inactive: -0.069	inactive: 0.139
CCDC85C (UniProt A6NKD9)	inactive: -0.042	inactive: 0.078	inactive: 0.026	inactive: 0.034	inactive: -0.09
CCDC22 (UniProt O60826)	inactive: -0.04	inactive: 0.011	inactive: 0.068	inactive: 0.012	inactive: 0.008
CCDC50 (UniProt Q8IVM0)	inactive: 0.012	inactive: 0.007	inactive: 0.019	inactive: 0.005	inactive: 0.012
CCNB2 (UniProt O95067)	inactive: -0.005	inactive: 0.098	inactive: 0.033	inactive: 0.014	inactive: -0.056
CCT8 (UniProt P50990)	inactive: -0.006	inactive: 0.01	inactive: -0.013	inactive: -0.023	inactive: 0.002
CCDC57 (UniProt Q2TAC2)	inactive: 0.015	active: 0.262	inactive: 0.047	inactive: -0.161	inactive: -0.139
CDAN1 (UniProt Q8IWY9)	inactive: -0.035	inactive: -0.049	inactive: 0.051	inactive: 0.091	inactive: 0.022
CCDC117 (UniProt Q8IWD4)	inactive: 0.051	inactive: -0.005	inactive: -0.025	inactive: 0.166	inactive: 0.028
CASTOR2 (UniProt A6NHX0)	inactive: 0.056	inactive: 0.078	inactive: 0.039	inactive: -0.065	inactive: -0.016
CASP2 (UniProt P42575)	inactive: -0.039	inactive: 0.016	inactive: 0.027	inactive: -0.01	inactive: -0.039
CCT2 (UniProt P78371)	inactive: -0.005	inactive: 0.003	inactive: -0.044	inactive: -0.019	inactive: 0.004
CCDC58 (UniProt Q4VC31)	inactive: 0.027	inactive: -0.031	inactive: -0.011	inactive: -0.025	inactive: 0.045
CD97 (UniProt P48960)	inactive: 0.013	inactive: -0.043	inactive: -0.047	inactive: -0.052	inactive: 0.2
CD63 (UniProt P08962)	inactive: 0.041	inactive: 0.02	inactive: -0.008	inactive: 0.009	inactive: 0.035
CCDC174 (UniProt Q6PII3)	inactive: 0	inactive: 0.001	inactive: 0.024	inactive: -0.016	inactive: 0.017
CASC4 (UniProt Q6P4E1)	inactive: -0.009	inactive: 0.035	inactive: 0.044	inactive: 0.019	inactive: -0.02
CBR4 (UniProt Q8N4T8)	inactive: 0.014	inactive: 0.086	inactive: 0.06	inactive: 0.004	inactive: 0.042
CC2D1A (UniProt Q6P1N0)	inactive: -0.047	inactive: 0.002	inactive: 0.12	inactive: 0.007	inactive: -0.051

An excerpt of these results, as a markdown table.

| Target | log2 fold change [1] | log2 fold change [2] | log2 fold change [3] | log2 fold change [4] | log2 fold change [5] |
| --- | --- | --- | --- | --- | --- |
| CASTOR2 (UniProt A6NHX0) | inactive: 0.056 | inactive: 0.078 | inactive: 0.039 | inactive: -0.065 | inactive: -0.016 |
| CASP2 (UniProt P42575) | inactive: -0.039 | inactive: 0.016 | inactive: 0.027 | inactive: -0.01 | inactive: -0.039 |
